Screening data, single-dose tests

The chains behind the UniProt entries cited, without tags or fusion partners. Residues count along the entry.
UniProt A4I591, 1-473: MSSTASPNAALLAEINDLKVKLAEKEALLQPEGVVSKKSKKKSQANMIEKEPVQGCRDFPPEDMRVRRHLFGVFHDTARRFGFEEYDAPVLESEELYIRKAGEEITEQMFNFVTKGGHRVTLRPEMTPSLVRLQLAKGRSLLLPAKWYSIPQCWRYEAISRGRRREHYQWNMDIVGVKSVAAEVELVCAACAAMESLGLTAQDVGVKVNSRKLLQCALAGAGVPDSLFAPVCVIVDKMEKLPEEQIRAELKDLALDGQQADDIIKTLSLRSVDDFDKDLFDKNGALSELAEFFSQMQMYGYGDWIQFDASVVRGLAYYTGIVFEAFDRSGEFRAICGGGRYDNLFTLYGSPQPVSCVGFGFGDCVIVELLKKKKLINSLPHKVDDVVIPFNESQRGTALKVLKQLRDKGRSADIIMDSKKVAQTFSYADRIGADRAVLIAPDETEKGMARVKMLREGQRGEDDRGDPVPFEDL
UniProt Q4DA54, 1-478: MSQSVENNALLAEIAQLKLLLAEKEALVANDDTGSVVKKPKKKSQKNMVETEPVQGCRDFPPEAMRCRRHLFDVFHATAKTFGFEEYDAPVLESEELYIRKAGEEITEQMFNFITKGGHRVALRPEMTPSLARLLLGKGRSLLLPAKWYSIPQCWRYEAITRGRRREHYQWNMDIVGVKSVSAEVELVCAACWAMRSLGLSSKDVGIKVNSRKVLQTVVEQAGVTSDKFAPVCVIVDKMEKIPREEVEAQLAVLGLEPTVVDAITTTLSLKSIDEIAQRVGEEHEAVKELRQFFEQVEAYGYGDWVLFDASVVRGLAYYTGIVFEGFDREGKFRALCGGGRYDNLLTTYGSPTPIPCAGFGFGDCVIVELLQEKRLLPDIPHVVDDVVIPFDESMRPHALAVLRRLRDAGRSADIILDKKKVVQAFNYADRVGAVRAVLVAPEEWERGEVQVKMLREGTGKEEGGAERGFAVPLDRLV
UniProt P9WPC5, whole entry: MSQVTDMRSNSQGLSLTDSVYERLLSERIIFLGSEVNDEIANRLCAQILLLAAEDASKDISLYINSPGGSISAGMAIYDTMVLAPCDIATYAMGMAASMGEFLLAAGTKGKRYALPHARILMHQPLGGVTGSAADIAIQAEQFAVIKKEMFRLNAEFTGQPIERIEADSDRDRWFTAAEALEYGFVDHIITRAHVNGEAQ
UniProt P9WPC3, whole entry partner: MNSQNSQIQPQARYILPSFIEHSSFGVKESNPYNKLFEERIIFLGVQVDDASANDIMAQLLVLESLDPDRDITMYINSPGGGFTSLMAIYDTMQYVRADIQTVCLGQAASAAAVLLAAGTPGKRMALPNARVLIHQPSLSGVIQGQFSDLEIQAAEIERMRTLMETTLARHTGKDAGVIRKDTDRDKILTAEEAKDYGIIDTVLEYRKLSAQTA

The filed quantity is “Percent Effect” (%).
How 0% and 100% were set is not recorded. Most values in the screen are low, and negative values occur.
The compounds are a random part of those screened.

A: 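Enzyme assay of histidyl-tRNA synthetase; the read-out is not stated. Target: Histidine-tRNA ligase, Leishmania infantum (UniProt A4I591). Compounds at 30 µM. Direction is inferred from retests: higher values go with stronger inhibition. The assay is labelled LdHisRS but filed under L. infantum. About 69,000 compounds were tested under these conditions; 0.6% (about 410) showed 50% or more at least once.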
B: 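Enzyme assay of histidyl-tRNA synthetase; the read-out is not stated. Target: Histidine-tRNA ligase, Trypanosoma cruzi CL Brener (UniProt Q4DA54). Compounds at 30 µM. Higher reads as stronger inhibition (inferred: compounds with an IC50 in retests scored well above the rest). Of about 69,000 compounds tested this way, about 31 (0.045%) reached 50% or more in at least one test.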
C: 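Protease assay of ClpP1P2, read by the AMC dye that it sets free. Target: ClpP1P2, Mycobacterium tuberculosis (UniProt P9WPC5 and UniProt P9WPC3). Compounds at 50 µM. Direction is inferred from only a few compounds that gave an IC50; most scored high, so higher reads as stronger inhibition. Most other retested compounds had strongly negative values. Size under these conditions: about 69,000 compounds, about 10 of them at 50% or above in at least one test.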

O=C(C1CC1)N1CC2(CCNCC2)C1 read A: 9.709%; B: 4.854%; C: 4.559%.
c1csc(CN2CC[C@H]3C[C@H](c4ccncn4)O[C@@H]3C2)c1 read A: 6.796%; B: 2.174%; C: -15.16%.
CN(Cc1cc(Cl)ccc1Cl)Cc1ncnn1C read A: 2.941%; B: 5.82%; C: -12.73%.
COC(=O)CCNC(=O)c1ccc(NC(=O)N(C)CC(C)C)cc1 read A: 31.25%; B: 0%; C: -1.31%.
Cc1cc(N2CCN(Cc3ccccc3)CC(O)C2)nc(N)n1 (centres undefined) read A: 13.89%; B: 1.02%; C: 1.493%.
N#Cc1ccccc1N1CCCN(C(=O)NCc2cc[nH]n2)CC1 read A: 15.18%; B: 6.358%; C: -46.65%.
COCC(=O)N1CCCN(c2ncnc3c2CCNCC3)CC1 read A: 10.83%; B: 3.947%; C: 1.984%.
Cc1ccnc(CC(C)N(C)c2cc(CN)nc(C)n2)c1 (centres undefined) read A: 7.895%; B: 8.38%; C: -8.912%.
CC(Cn1cccn1)NC(=O)c1ccsc1 (centres undefined) read A: 20.48%; B: -4.878%; C: 8.25%.
c1cncc(NCCNC2CCSC2)c1 (centres undefined) read A: 62.86%; B: 11.34%; C: -1.606%.
COCCN1CCN(CC2(O)CCCCC2)CC1 read A: -2.857%; B: 5.102%; C: -2.21%.
c1ccc2ncc(CC3CCNC3)cc2c1 (centres undefined) read A: 11.35%; B: 0.7752%; C: 10.62%.
N#CCCCS(=O)(=O)NC1(c2cccc(Br)c2)CC1 read A: 21.74%; B: 5.941%; C: -3.242%.
Fc1cccc(N2CCCC3(C2)CN(c2ncccn2)CCO3)c1 (centres undefined) read A: 26.21%; B: 8.696%; C: -0.6819%.
Cn1cc(CN2CC[C@@H]3[C@@H](CCC(=O)N3CCc3ccccc3)C2)cn1 read A: 17.74%; B: 3.061%; C: -11.24%.
CC(C)CN1C(=O)CO[C@@H]2CN(C(=O)C3CCOC3)C[C@H]21 (some centres undefined) read A: -5.882%; B: -3.941%; C: 22.53%.
Cc1nc(CC(C)C)sc1C(=O)N1CCC1 read A: 8.219%; B: 1.053%; C: -0.2136%.
CSc1cccc(CC(=O)N[C@@H]2CCNC[C@H]2O)c1 read A: -4.225%; B: 0.5525%; C: 0.09952%.
CC(c1nnc(-c2cccs2)o1)N1CCc2cncnc2C1 (centres undefined) read A: 13.54%; B: 13.81%; C: 10.69%.
O=C(Cc1ccc(F)c(Br)c1)NC1CCN(CC(F)F)CC1 read A: 10.71%; B: 4.035%; C: -22.12%.

Repeated from the top, 2 entries:

| structure | A | B | C |
|---|---|---|---|
| `O=C(C1CC1)N1CC2(CCNCC2)C1` | 9.709 | 4.854 | 4.559 |
| `c1csc(CN2CC[C@H]3C[C@H](c4ccncn4)O[C@@H]3C2)c1` | 6.796 | 2.174 | -15.16 |

Data taken from ChEMBL document CHEMBL3988442, “University of Dundee, Small-Polar-MMV Screening Library” (2021).